Earlier results, collected in patent publication US20210046106A1, “METHODS OF TREATING CANCER WITH ANDROGEN DEPRIVATION THERAPY IN COMBINATION WITH AN INHIBITOR OF THE SP1 TRANSCRIPTION FACTOR” (The Board of Trustees of the Leland Stanford Junior …, priority 2019, published 2021).
At least one compound was matched to its structure with a doubt left.

System: AR splice variants 5, 6, and 7
Conditions: CRPC cells; cited from earlier work

Which “expression of AR splice variants 5, 6, and 7” value does the source give for `C[C@]12CC[C@H](O)CC1=CC[C@@H]1[C@@H]2CC[C@]2(C)C(c3cccnc3)=CC[C@@H]12` [abiraterone] here?
Its value is “increases the expression”.
